Where a chain is given by its changes, count along the chain named. No constants are given. Whether binding was seen depends on the method and setting. Binding seen in cells or lysates may run through a third protein. For part of these data: A result given as binding can be weak or reduced; the word gives no strength. Tags and fused reporters may be left off the sequences shown.
Tests used:
Assay in all cases: co-IP; HEK293T cells transfected with the indicated constructs, analysed 48 hr after transfection; Triton lysis buffer (1% Triton X-100, 150 mM NaCl, pH 7.5), anti-V5 agarose or anti-HA with A/G plus agarose, 4°C overnight, Western blot
[1] = target: T1, V5 tagged PTPRK (1–1446), Protein tyrosine phosphatase receptor-type kappa (human) (UniProt Q15262)
T1 sequence: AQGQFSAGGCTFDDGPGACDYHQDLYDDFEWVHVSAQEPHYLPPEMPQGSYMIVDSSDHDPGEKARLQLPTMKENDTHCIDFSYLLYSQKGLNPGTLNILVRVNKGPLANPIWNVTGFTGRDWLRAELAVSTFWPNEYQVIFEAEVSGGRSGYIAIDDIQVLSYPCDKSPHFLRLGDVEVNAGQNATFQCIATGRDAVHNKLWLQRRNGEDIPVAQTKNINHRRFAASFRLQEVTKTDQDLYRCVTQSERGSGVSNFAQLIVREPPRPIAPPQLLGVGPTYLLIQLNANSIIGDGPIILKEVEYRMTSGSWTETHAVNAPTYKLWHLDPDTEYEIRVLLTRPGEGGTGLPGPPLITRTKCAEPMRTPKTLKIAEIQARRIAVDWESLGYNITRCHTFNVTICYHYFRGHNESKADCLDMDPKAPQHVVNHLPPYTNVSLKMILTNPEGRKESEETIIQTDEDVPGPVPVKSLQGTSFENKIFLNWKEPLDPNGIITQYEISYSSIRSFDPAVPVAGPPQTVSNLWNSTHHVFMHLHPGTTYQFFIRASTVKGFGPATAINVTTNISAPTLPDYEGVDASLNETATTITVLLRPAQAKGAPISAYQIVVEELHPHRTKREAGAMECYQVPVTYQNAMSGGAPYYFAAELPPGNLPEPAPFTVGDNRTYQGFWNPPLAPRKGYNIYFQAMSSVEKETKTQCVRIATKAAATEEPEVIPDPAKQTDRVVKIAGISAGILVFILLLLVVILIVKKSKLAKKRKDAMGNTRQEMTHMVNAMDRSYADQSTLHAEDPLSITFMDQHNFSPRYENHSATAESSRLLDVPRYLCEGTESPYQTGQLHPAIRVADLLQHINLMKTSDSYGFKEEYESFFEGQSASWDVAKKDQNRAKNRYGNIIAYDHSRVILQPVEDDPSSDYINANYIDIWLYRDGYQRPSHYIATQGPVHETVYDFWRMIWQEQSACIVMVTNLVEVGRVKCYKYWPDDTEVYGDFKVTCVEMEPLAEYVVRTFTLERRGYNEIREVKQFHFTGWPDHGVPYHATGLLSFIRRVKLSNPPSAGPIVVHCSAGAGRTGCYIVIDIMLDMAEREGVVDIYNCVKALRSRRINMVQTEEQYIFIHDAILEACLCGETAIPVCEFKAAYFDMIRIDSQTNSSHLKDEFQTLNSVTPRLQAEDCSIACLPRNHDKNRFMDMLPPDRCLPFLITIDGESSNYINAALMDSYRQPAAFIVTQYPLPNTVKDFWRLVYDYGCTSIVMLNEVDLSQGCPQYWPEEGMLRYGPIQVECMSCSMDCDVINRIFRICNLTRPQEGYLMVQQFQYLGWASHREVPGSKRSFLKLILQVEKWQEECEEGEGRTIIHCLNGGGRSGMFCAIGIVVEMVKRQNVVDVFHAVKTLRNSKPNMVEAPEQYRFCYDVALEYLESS

Sequences of proteins named here, by UniProt entry; tags and fusion partners are left off. A change or cut given only in a name is not applied to a line headed by its entry.
UniProt Q9ULT6: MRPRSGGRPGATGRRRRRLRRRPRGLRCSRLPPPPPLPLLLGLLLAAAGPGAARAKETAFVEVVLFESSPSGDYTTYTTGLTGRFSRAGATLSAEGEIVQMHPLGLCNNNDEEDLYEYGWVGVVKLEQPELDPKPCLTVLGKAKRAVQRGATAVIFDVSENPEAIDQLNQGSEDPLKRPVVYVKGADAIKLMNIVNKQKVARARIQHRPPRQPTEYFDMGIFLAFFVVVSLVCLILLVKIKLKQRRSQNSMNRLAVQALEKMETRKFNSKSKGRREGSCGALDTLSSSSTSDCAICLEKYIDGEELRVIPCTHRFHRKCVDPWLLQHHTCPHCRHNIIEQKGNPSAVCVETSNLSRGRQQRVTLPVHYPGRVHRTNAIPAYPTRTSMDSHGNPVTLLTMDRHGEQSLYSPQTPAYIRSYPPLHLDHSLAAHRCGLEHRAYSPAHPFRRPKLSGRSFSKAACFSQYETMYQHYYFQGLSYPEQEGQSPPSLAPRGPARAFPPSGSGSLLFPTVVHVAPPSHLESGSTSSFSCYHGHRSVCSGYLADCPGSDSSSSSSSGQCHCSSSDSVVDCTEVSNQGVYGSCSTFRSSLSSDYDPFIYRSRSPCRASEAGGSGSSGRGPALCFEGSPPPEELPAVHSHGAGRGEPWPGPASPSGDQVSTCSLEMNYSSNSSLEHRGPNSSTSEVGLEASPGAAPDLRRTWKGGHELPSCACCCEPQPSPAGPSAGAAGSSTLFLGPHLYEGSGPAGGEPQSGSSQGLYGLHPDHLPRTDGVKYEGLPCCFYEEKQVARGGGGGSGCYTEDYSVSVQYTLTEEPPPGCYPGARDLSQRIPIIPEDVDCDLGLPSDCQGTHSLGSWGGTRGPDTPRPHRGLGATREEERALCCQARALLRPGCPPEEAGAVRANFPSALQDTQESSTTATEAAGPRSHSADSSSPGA

[2] = target: T2, V5-PTPRK-DA (D1057A; Asp in WPD loop changed to Ala) (human) (UniProt Q15262)
T2 sequence: T1 sequence with D1031A

[3] = target: T3, V5 tagged PTPRKΔC (1-776) (human) (UniProt Q15262)
T3 sequence: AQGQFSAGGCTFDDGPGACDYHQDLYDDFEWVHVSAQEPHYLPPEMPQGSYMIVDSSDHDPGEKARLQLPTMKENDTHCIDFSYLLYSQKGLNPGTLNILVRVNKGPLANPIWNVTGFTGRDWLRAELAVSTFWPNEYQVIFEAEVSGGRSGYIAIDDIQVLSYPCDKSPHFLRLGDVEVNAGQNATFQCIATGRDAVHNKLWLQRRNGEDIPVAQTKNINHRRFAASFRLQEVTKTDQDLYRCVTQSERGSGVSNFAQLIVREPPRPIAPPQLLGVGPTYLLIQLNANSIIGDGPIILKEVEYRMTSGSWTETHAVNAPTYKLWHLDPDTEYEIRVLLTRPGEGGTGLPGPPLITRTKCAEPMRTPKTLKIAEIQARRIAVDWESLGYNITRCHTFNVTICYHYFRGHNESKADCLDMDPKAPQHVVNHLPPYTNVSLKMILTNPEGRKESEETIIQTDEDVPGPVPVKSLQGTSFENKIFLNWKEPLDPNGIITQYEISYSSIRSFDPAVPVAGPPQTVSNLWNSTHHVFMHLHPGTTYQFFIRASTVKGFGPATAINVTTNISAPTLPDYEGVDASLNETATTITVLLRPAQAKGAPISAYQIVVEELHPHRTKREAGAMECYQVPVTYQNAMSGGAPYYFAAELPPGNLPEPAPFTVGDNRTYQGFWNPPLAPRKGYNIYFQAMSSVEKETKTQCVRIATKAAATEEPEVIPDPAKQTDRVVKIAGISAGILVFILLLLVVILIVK

**Q.** Which results are given for “Myc-ZNRF3-ΔRING (from UniProt Q9ULT6) (enzyme)”?
**A.** binding [1]: binds; binding [2]: binds; binding [3]: no binding
